The exact form of at least one protein or probe is not confirmed. At least one verdict was read from the data and is not stated in words by the source. Where a protein sequence is shown, tags need not be part of it.
Target: T1, C9S SqrR C23S (UniProt D5AT91)
T1 sequence (looked up, limits assumed): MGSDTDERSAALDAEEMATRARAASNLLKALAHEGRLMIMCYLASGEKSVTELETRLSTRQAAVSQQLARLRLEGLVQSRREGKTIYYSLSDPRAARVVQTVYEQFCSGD
Assay: fluorescence anisotropy
Settings: 300 mM NaCl, value not in material

Sequence: TTGCCTATTCATATTCTCATATGTGC (double strand) [0785 (SQR promoter operator, rcc00785)]
- binding result: binds
